Test results taken from patent US20140256644A1, “Treatment of Muscular Conditions and Muscular Dystrophies” (priority 2011, published 2014).
“Also recorded” adds a separate entry of the source. For at least one compound, name, drawing or mass did not settle the structure.

System: adult mdx FDB myofibers
Experiment: Stretch-induced ROS production (X-ROS), DCF fluorescence, 10% axial stretch (MuST)
Format: cell-based, mouse
Settings: adult mdx FDB fibers, 10% stretch, gp91dsTAT 2 μM, fulvene-5 5 μM, L-NAME 1 mM, colchicine, nocodozole, latrunculin A 10 μM
Protocol: After euthanasia by CO2 inhalation, flexor digitorum brevis (FDB) muscle was harvested bilaterally and incubated in DMEM with 1 μl/ml gentamicin, and 0.4% collagenase A (Roche Applied Science, Indianapolis, Ind., USA) as described. Single intact myofibers were isolated by gentle trituration. The fibers were imaged and/or fixed for immunolabeling within an 8-h period (unless indicated), thus avoiding morphological changes that can occur in FDB fibers that are cultured for a prolonged period. […]
Myofibers were attached at both ends by gently closing the MyoTak-coated tweezers without compressing the cell membrane and then lifting the cell from the bottom of the chamber. Cell sarcomere length was monitored using a High-speed Video Sarcomere Length camera (Aurora Scientific, Aurora, ON, CAN) and the voltage into the length controller was adjusted to produce a stretch equal to 10% of resting sarcomere length. The tension signal from the force transducer and positional output from the length controller were recorded at 1 kHz using a 600A data acquisition system from Aurora.
ROS was measured using 6-carboxy-2″,7″-dichlorodihydrofluorescein diacetate (DCFH-DA) (Invitrogen, Carlsbad, Calif.) in dimethyl sulfoxide (DMSO). […] DCF fluorescence signals were processed as described (16). […]

COC(=O)Nc1nc2ccc(C(=O)c3cccs3)cc2n1C [nocodozole]
stretch-induced ROS production (X-ROS): equally effective as colchicine; also recorded: little X-ROS; also recorded: ameliorated the stretch-induced ROS production
